{"source": "patent US8912146B2", "about": "(University of Maryland, Baltimore, priority 2008, dated 2014)", "data": [{"experiment": "general procedure: Fmoc solid-phase peptide synthesis; 2ClTrt resin (alanyl 2-chlorotrityl resin); Rink Amide resin for 29; HATU/HOAt/DIPEA; BEP/HOAt/DIPEA for glycosylated Thr/Ser", "details": "whole synthesis, HPLC trace analysis at 227 nm", "units": {"final HPLC purity": "%"}, "values": [{"substance": "Galβ1-3GalNAcα-O-TV-Pip-AAVVVA", "final HPLC purity": ">99"}, {"substance": "Galβ1-3GalNAcα-O-TVPAAVVVA", "final HPLC purity": ">99"}, {"substance": "Galβ1-3GalNAcα-O-TVPAAVV", "final HPLC purity": ">99"}, {"substance": "Galβ1-3GalNAcα-O-TVPAAVVV", "final HPLC purity": ">98"}]}]}
